Results are given in words; binding and its absence hold for the method and conditions named. In cells and extracts the contact can be indirect. Some entries that bind do so weakly or less than the wild type. One block for each molecule: values may come before it.
How the values were obtained:
[1] = target: T1, Mon2 extreme C-terminal region (MEC), cell-expressed (UniProt Q7Z3U7); assay: co-IP; tagged proteins co-expressed in HEK293T, lysate in 40 mM HEPES pH 7.3, 100 mM NaCl, 0.1 or 1% Triton X-100; IP with antibody and Protein A/G beads or GFP-Trap beads, immunoblot
T1 sequence: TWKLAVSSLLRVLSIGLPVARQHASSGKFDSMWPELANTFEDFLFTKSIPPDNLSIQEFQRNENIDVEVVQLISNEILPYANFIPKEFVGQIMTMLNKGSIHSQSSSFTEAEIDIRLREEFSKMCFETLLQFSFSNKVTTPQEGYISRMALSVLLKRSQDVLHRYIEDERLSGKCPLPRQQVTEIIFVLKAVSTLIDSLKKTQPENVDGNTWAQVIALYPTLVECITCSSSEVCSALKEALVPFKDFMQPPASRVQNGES

Protein sequences, listed by entry. Tags and fused reporters are not part of them.
UniProt Q9H0B6: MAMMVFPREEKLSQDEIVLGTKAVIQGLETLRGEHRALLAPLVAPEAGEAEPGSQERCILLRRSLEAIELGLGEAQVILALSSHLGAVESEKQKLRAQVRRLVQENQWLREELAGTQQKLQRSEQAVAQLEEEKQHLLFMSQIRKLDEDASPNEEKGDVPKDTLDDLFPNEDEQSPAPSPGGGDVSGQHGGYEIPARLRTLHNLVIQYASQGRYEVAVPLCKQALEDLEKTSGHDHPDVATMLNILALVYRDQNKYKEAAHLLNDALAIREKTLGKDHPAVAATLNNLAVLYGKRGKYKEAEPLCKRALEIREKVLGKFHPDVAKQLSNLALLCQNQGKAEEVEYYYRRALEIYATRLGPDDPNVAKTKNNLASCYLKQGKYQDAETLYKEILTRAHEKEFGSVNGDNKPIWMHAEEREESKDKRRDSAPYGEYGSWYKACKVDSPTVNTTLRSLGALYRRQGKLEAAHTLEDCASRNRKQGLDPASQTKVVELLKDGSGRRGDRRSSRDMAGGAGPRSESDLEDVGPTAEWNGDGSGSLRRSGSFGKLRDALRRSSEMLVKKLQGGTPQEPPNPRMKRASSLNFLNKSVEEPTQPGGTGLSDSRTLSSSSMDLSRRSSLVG
UniProt Q9Y3R5: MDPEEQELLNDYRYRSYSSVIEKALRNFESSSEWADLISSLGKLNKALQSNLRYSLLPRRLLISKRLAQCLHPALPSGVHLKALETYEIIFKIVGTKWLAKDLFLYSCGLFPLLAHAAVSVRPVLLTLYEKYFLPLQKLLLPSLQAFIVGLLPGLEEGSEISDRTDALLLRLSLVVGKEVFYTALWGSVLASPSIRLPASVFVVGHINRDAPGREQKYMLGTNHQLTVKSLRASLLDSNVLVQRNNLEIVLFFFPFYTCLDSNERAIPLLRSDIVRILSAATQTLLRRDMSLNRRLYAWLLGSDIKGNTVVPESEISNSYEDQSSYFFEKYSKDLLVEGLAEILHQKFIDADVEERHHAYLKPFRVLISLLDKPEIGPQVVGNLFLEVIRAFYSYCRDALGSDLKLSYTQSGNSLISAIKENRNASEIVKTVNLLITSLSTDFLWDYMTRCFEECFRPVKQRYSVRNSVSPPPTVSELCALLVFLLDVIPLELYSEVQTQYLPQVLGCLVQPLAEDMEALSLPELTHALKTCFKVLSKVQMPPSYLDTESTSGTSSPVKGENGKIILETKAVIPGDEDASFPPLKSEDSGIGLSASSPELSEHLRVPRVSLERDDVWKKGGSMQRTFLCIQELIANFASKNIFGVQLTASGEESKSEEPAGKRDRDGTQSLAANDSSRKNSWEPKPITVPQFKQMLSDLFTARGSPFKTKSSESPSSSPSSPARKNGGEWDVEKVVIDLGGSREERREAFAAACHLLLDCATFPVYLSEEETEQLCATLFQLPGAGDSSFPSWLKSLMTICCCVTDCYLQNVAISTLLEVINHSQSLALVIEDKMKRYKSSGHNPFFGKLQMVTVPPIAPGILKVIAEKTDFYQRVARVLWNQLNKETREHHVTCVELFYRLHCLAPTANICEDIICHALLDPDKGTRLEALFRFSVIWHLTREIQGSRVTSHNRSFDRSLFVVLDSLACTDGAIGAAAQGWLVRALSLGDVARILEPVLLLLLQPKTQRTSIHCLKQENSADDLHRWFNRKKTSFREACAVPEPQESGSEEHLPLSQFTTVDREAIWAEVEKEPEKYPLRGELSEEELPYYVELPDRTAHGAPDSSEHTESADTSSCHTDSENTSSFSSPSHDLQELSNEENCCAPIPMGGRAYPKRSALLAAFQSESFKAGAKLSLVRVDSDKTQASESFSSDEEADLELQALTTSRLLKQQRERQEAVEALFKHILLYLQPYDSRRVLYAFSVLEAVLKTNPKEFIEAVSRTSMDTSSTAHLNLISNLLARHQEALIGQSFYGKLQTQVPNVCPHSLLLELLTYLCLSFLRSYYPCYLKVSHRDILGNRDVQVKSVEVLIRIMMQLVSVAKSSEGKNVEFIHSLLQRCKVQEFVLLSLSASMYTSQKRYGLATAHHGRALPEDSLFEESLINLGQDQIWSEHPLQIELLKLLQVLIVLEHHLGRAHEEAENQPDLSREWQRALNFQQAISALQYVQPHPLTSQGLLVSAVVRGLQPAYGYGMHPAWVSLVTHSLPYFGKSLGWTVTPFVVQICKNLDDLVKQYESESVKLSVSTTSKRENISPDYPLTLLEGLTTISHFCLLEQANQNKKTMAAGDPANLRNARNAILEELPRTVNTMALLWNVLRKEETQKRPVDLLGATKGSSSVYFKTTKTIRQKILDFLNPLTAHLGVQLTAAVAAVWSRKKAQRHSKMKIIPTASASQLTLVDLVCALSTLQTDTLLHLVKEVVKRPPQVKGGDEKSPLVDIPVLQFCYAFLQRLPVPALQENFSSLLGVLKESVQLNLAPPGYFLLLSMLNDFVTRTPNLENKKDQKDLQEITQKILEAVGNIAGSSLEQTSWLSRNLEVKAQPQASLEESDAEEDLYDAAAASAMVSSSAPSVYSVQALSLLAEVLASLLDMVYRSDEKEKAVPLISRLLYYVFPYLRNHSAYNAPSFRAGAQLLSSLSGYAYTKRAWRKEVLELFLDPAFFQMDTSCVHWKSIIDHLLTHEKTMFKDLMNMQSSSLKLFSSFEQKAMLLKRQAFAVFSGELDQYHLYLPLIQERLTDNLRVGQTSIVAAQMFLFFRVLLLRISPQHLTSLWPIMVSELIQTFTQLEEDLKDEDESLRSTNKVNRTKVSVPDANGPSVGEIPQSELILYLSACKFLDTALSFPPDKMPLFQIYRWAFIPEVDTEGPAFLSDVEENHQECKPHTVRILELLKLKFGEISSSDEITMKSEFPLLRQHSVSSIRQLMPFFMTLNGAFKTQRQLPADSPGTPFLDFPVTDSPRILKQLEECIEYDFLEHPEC
UniProt B2RWN9: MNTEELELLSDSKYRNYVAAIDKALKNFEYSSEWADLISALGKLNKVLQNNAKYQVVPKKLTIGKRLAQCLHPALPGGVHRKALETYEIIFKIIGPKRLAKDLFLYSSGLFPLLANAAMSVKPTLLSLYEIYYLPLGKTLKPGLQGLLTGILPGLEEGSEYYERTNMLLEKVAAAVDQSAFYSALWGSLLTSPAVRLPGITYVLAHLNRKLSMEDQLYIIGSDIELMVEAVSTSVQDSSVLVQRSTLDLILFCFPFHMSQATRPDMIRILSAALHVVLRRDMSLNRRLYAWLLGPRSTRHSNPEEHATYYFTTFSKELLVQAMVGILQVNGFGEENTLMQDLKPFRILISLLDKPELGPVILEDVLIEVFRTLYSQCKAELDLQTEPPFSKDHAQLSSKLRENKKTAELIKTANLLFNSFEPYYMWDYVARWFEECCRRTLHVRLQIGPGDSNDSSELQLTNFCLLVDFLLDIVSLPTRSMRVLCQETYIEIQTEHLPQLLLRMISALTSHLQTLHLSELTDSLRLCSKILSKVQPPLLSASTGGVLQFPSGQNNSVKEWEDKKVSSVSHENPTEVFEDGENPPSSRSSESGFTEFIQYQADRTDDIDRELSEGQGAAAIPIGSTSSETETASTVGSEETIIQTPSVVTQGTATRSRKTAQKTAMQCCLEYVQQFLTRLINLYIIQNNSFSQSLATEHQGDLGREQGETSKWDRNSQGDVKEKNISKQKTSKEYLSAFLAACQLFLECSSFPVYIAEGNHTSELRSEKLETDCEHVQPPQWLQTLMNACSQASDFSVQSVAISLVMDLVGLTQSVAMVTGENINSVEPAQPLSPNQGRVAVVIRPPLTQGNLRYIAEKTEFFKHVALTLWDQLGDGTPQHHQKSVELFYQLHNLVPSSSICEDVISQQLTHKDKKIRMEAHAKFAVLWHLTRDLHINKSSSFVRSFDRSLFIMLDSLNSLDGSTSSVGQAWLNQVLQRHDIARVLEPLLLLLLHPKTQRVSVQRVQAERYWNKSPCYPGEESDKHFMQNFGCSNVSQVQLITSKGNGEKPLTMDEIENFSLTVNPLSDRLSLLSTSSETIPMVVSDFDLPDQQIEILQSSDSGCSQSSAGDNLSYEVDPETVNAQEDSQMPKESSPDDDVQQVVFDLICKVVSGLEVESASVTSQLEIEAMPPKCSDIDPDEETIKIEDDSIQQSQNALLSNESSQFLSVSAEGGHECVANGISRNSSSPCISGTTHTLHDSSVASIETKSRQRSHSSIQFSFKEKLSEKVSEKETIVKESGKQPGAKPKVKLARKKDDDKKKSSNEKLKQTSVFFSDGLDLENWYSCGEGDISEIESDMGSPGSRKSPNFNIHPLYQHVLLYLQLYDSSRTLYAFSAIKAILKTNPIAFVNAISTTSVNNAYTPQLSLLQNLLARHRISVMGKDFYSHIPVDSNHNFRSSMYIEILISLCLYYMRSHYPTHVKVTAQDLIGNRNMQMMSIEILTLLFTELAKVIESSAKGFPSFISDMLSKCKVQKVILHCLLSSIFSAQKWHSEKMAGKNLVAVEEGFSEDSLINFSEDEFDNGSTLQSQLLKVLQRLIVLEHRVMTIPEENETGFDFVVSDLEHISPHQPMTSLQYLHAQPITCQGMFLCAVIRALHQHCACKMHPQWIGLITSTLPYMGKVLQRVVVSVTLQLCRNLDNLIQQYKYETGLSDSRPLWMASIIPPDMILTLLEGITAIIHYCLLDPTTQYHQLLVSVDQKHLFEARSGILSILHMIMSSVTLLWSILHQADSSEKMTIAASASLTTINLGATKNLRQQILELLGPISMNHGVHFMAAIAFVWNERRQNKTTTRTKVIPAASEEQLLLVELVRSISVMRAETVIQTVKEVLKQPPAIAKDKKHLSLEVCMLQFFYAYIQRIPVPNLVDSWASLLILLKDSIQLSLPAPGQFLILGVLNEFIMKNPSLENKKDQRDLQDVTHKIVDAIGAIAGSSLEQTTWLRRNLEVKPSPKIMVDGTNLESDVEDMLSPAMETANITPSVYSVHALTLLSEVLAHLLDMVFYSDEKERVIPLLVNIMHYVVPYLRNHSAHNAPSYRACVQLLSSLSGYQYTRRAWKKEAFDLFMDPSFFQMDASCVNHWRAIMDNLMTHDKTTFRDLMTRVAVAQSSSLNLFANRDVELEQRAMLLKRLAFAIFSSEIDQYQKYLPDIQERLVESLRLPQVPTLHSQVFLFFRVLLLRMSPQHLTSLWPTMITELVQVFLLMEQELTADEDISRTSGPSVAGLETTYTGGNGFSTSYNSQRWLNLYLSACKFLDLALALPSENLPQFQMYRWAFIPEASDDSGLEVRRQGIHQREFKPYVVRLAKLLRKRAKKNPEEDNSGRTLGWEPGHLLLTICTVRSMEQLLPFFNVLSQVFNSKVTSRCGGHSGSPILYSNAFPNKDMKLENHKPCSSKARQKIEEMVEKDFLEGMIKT
UniProt P33176: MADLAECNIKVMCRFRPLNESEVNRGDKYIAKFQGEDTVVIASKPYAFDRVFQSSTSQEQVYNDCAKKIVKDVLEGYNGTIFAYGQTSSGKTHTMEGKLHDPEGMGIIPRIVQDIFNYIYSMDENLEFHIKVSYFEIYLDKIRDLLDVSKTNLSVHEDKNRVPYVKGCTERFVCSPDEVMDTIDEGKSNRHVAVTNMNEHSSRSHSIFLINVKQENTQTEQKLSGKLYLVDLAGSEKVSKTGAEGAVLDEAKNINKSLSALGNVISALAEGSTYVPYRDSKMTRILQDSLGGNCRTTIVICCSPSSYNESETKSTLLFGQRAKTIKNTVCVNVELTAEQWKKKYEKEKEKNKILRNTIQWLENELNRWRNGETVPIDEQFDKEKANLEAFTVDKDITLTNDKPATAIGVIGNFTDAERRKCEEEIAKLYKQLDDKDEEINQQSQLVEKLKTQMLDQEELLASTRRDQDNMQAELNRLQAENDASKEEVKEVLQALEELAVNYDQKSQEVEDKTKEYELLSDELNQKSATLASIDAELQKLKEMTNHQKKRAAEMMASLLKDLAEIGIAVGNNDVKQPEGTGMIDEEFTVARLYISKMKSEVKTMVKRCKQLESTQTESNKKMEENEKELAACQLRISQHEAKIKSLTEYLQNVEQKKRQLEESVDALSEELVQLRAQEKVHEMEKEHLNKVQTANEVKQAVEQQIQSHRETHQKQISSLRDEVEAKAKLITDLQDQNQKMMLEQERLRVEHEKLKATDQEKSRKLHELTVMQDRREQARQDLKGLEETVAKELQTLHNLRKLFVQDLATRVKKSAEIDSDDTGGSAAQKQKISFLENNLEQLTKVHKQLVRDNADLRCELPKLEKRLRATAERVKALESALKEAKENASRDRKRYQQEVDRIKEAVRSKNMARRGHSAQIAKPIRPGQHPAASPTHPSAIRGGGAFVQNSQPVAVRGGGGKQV

[2] = target: KLC2 (kinesin light chain 2), transfected (UniProt Q9H0B6); assay: as above
[3] = target: Mon2, full length, transfected (UniProt Q7Z3U7); assay: as above
[4] = target: Dopey2 (endogenous) (human (endogenous in HEK293T)) (UniProt Q9Y3R5); assay: co-IP; endogenous proteins, HEK293T lysate; IP with Mon2, Dopey1 or Dopey2 antibody, immunoblot
[5] = target: Dopey1 (endogenous) (human (endogenous in HEK293T)) (UniProt B2RWN9); assay: as above

binding [1]: binds
binding [2]: binds
binding [3]: binds
Molecule: Dopey1, full length, transfected (from UniProt B2RWN9 1-2456)

binding [4]: no binding
Molecule: Kif5b, the heavy chain of kinesin-1 (endogenous) (from UniProt P33176 1-963)

binding [5]: no binding
B1: Kif18a (endogenous) (protein, UniProt Q8NI77 1-898)
chain: MSVTEEDLCHHMKVVVRVRPENTKEKAAGFHKVVHVVDKHILVFDPKQEEVSFFHGKKTTNQNVIKKQNKDLKFVFDAVFDETSTQSEVFEHTTKPILRSFLNGYNCTVLAYGATGAGKTHTMLGSADEPGVMYLTMLHLYKCMDEIKEEKICSTAVSYLEVYNEQIRDLLVNSGPLAVREDTQKGVVVHGLTLHQPKSSEEILHLLDNGNKNRTQHPTDMNATSSRSHAVFQIYLRQQDKTASINQNVRIAKMSLIDLAGSERASTSGAKGTRFVEGTNINRSLLALGNVINALADSKRKNQHIPYRNSKLTRLLKDSLGGNCQTIMIAAVSPSSVFYDDTYNTLKYANRAKDIKSSLKSNVLNVNNHITQYVKICNEQKAEILLLKEKLKAYEEQKAFTNENDQAKLMISNPQEKEIERFQEILNCLFQNREEIRQEYLKLEMLLKENELKSFYQQQCHKQIEMMCSEDKVEKATGKRDHRLAMLKTRRSYLEKRREEELKQFDENTNWLHRVEKEMGLLSQNGHIPKELKKDLHCHHLHLQNKDLKAQIRHMMDLACLQEQQHRQTEAVLNALLPTLRKQYCTLKEAGLSNAAFESDFKEIEHLVERKKVVVWADQTAEQPKQNDLPGISVLMTFPQLGPVQPIPCCSSSGGTNLVKIPTEKRTRRKLMPSPLKGQHTLKSPPSQSVQLNDSLSKELQPIVYTPEDCRKAFQNPSTVTLMKPSSFTTSFQAISSNINSDNCLKMLCEVAIPHNRRKECGQEDLDSTFTICEDIKSSKCKLPEQESLPNDNKDILQRLDPSSFSTKHSMPVPSMVPSYMAMTTAAKRKRKLTSSTSNSSLTADVNSGFAKRVRQDNSSEKHLQENKPTMEHKRNICKINPSMVRKFGRNISKGNLR

From publication PMC6642134, “Dopey1-Mon2 complex binds to dual-lipids and recruits kinesin-1 for membrane trafficking” (Nature Communications, 2019)
